Measurements published in patent EP3572468B1, “CYANINE DYES AND THEIR USAGE FOR IN VIVO STAINING OF MICROORGANISMS” (PHILIPPS-UNIVERSITÄT MARBURG, priority 2018, dated 2019).
At least one compound was matched to its structure with a doubt left.

Experiments:
Experiment in all cases: Resistance to standard antibiotics, bacterial dilutions spotted onto solid medium
[1] = system: E. coli; format: cell-based, Escherichia coli; details: dilutions spotted onto LB solid medium supplemented with antibiotic, outgrowth 48 h
Procedure: (§1) Escherichia coli (E. coli) NEB5α (New England Biolabs) and antibiotic-resistant and -sensitive Klebsiella pneumoniae (K. pneumoniae) were cultured in Luria-Bertani (LB) solid medium (LB-Agar) overnight at 37°C. The source of the K. pneumoniae strands is of no relevance to the invention. The invention may be applied to all types of microorganisms (bacteria, viri, fungi etc.) or other cells, either contained within a sample or isolated from a sample. For staining, growth curve analysis and replating experiments bacteria were suspended in LB liquid medium at an OD600 nm of 1.0 and 800 µL were transferred into a culture tube containing 7.2 mL of LB liquid medium supplemented with DMSO or candidate dyes (2.5 µM) final concentration). Density of bacterial cultures was measured using an Ultrospec 10 Cell Density Meter with 600 nm LED source (Amersham Biosciences). For bacterial re-plating experiments bacteria were sampled at OD600 nm = 2.0 and 5 µL of indicated dilutions in LB-medium were spotted onto LB-agar plates (Fig. 5) or 100 µL were plated onto LB-agar plates followed by incubation at 37°C until colonies became visible.

[2] = system: antibiotic-sensitive K. pneumoniae; format: cell-based, Klebsiella pneumoniae; details: the other (antibiotic-sensitive) K. pneumoniae strain; dilutions spotted onto LB solid medium supplemented with antibiotic, outgrowth 48 h
Procedure: as §1

[3] = system: multiresistant K. pneumoniae; format: cell-based, Klebsiella pneumoniae; details: dilutions spotted onto LB solid medium supplemented with antibiotic, outgrowth 48 h
Procedure: as §1

With NC[C@H]1O[C@H](O[C@H]2[C@H](O)[C@@H](O[C@H]3O[C@H](CO)[C@@H](O)[C@H](N)[C@H]3O)[C@H](N)C[C@@H]2N)[C@H](O)[C@@H](O)[C@@H]1O [kanamycin] as the compound, how does the sensitivity to antibiotic [1] read?
The sensitivity to antibiotic was “sensitive”.

And the sensitivity to antibiotic [2]?
The sensitivity to antibiotic was “sensitive”.

What about the sensitivity to antibiotic [3] of the same compound?
Its sensitivity to antibiotic is “insensitive”.
